Values from PubChem BioAssay AID1159578 (Peter MacCallum Cancer Centre, 2015)

Purpose: 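siRNA pools altering how lymphatic endothelial cells close a scratch wound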 (primary screen)
Cells: human lymphatic endothelial cells
Reagents: siRNA pool against human genes, 40 nM
Time to read-out: 48 h after transfection
Detection: 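Cells stained with dye and imaged after a scratch; covered wound area and nuclei counted, duplicates averaged, migration set against mock wells and turned into a robust z-score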
Reading the numbers: migration robust z-score: higher = faster migration into the scratch; migration relative to mock: higher = more scratch area covered than mock; nuclei per well: higher = more cells in the well
Call rule: 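Migration changed when robust z exceeds 2 or falls below -2 and mean nuclei number is at least 3300; otherwise not called changed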
Meaning of the calls: active = migration changed; inactive = no migration change, or too few cells
The deposit covers about 18,000 reagents; below is an unselected part. About 1,030 of them (5.7%) were called active. 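Inactive calls also include pools with fewer than 3300 nuclei, whose migration was not assessed.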 The raw values are shown without normalisation. Reagent sequences are not shown.

target,migration robust z-score,migration class with cell-count check,migration relative to mock,"nuclei per well, duplicate mean",outcome
TEX101 (testis expressed 101),-0.64,migration z between -2 and 2; enough cells,0.72,5962,inactive
KMT2A (lysine methyltransferase 2A),-0.52,migration z between -2 and 2; enough cells,0.7,6040,inactive
USF3 (upstream transcription factor family member 3),0.88,migration z between -2 and 2; enough cells,1.11,5186,inactive
TCF19 (transcription factor 19),-2.42,migration z below -2; enough cells,0.34,3562,active
ACTN3 (actinin alpha 3),-0.84,migration z between -2 and 2; enough cells,0.66,5372,inactive
LYZ (lysozyme),1.12,migration z between -2 and 2; enough cells,1.02,3758,inactive
GRID2 (glutamate ionotropic receptor delta type subunit 2),0.68,migration z between -2 and 2; enough cells,0.94,6738,inactive
PDGFRL (platelet derived growth factor receptor like),0.05,migration z between -2 and 2; enough cells,0.82,4934,inactive
ZCCHC7 (zinc finger CCHC-type containing 7),-1.55,migration z between -2 and 2; enough cells,0.48,4862,inactive
MACF1 (microtubule actin crosslinking factor 1),-0.98,migration z between -2 and 2; enough cells,0.64,4616,inactive
PHF14 (PHD finger protein 14),-1.29,migration z between -2 and 2; enough cells,0.56,5163,inactive
ADAMTS2 (ADAM metallopeptidase with thrombospondin type 1 motif 2),0.32,migration z between -2 and 2; enough cells,0.86,5104,inactive
SEPTIN6 (septin 6),-2.65,migration z below -2; enough cells,0.3,3956,active
IAH1 (isoamyl acetate hydrolyzing esterase 1 (putative)),-0.81,migration z between -2 and 2; enough cells,0.68,5548,inactive
MMAB (metabolism of cobalamin associated B),-0.65,migration z between -2 and 2; enough cells,0.68,5866,inactive
ZNF765 (zinc finger protein 765),-0.48,migration z between -2 and 2; enough cells,0.76,6322,inactive
B3GNT3,1.46,migration z between -2 and 2; enough cells,1.08,5436,inactive
PVRIG (PVR related immunoglobulin domain containing),0.44,migration z between -2 and 2; enough cells,1,6188,inactive
TMEM213 (transmembrane protein 213),-1.31,under 3300 nuclei; migration not judged,0.54,3278,inactive
SDC4 (syndecan 4),-0.16,migration z between -2 and 2; enough cells,0.84,5514,inactive
BLVRA (biliverdin reductase A),0.75,migration z between -2 and 2; enough cells,0.95,6498,inactive
PLAC9 (placenta associated 9),-0.04,migration z between -2 and 2; enough cells,0.88,4748,inactive
KNTC1 (kinetochore associated 1),-0.74,migration z between -2 and 2; enough cells,0.7,5569,inactive
DNAH2 (dynein axonemal heavy chain 2),2.12,migration z above 2; enough cells,1.44,6959,active
LOC400576 (retired record),-1.17,migration z between -2 and 2; enough cells,0.58,6170,inactive
RBM8A (RNA binding motif protein 8A),-0.32,migration z between -2 and 2; enough cells,0.8,4776,inactive
ETV3L (ETS variant transcription factor 3 like),-0.28,migration z between -2 and 2; enough cells,0.82,5204,inactive
GRK5 (G protein-coupled receptor kinase 5),-2.25,under 3300 nuclei; migration not judged,0.37,2413,inactive
SNAI2 (snail family transcriptional repressor 2),-0.86,migration z between -2 and 2; enough cells,0.66,5227,inactive
NAT1 (N-acetyltransferase 1),1.5,migration z between -2 and 2; enough cells,1.09,6128,inactive
RGN (regucalcin),0.18,migration z between -2 and 2; enough cells,0.94,5538,inactive
LYPD8 (LY6/PLAUR domain containing 8),0.2,migration z between -2 and 2; enough cells,0.94,5095,inactive
OR52H1 (olfactory receptor family 52 subfamily H member 1),-1.38,migration z between -2 and 2; enough cells,0.53,5438,inactive
FAM216A (family with sequence similarity 216 member A),-0.06,migration z between -2 and 2; enough cells,0.88,5186,inactive

Called active, of those listed so far:
target,migration robust z-score,migration class with cell-count check,migration relative to mock,"nuclei per well, duplicate mean",outcome
TCF19 (transcription factor 19),-2.42,migration z below -2; enough cells,0.34,3562,active
SEPTIN6 (septin 6),-2.65,migration z below -2; enough cells,0.3,3956,active
DNAH2 (dynein axonemal heavy chain 2),2.12,migration z above 2; enough cells,1.44,6959,active

The list goes on:
target,migration robust z-score,migration class with cell-count check,migration relative to mock,"nuclei per well, duplicate mean",outcome
NRIP3 (nuclear receptor interacting protein 3),0.33,migration z between -2 and 2; enough cells,0.97,5672,inactive
SCN2A (sodium voltage-gated channel alpha subunit 2),0.57,migration z between -2 and 2; enough cells,0.92,5819,inactive
MCEMP1 (mast cell expressed membrane protein 1),-1.5,under 3300 nuclei; migration not judged,0.49,2557,inactive
RHPN1 (rhophilin Rho GTPase binding protein 1),0.18,migration z between -2 and 2; enough cells,0.93,5954,inactive
SCNN1A (sodium channel epithelial 1 subunit alpha),0.72,migration z between -2 and 2; enough cells,0.94,6012,inactive
MPLKIP (M-phase specific PLK1 interacting protein),-1.36,migration z between -2 and 2; enough cells,0.54,5291,inactive
DLX5 (distal-less homeobox 5),1.01,migration z between -2 and 2; enough cells,1,5686,inactive
LRP2BP (LRP2 binding protein),-0.54,migration z between -2 and 2; enough cells,0.74,5264,inactive
"MMS22L (MMS22 like, DNA repair protein)",0.39,migration z between -2 and 2; enough cells,0.99,5101,inactive
DOK3 (docking protein 3),-1.12,migration z between -2 and 2; enough cells,0.6,6510,inactive
CRABP2 (cellular retinoic acid binding protein 2),-2.72,migration z below -2; enough cells,0.28,4133,active
NMRK1 (nicotinamide riboside kinase 1),-1.32,migration z between -2 and 2; enough cells,0.54,5491,inactive
FBXO46 (F-box protein 46),-0.46,migration z between -2 and 2; enough cells,0.72,5434,inactive
MID2 (midline 2),0.96,migration z between -2 and 2; enough cells,0.99,6480,inactive
CEP120 (centrosomal protein 120),-0.67,migration z between -2 and 2; enough cells,0.71,6000,inactive
SF3A3 (splicing factor 3a subunit 3),-1.25,migration z between -2 and 2; enough cells,0.56,5292,inactive
ZNF77 (zinc finger protein 77),1.77,migration z between -2 and 2; enough cells,1.34,5954,inactive
DIMT1 (DIM1 rRNA methyltransferase and ribosome maturation factor),0.8,migration z between -2 and 2; enough cells,0.96,6688,inactive
PCDHB13 (protocadherin beta 13),-0.1,migration z between -2 and 2; enough cells,0.86,6267,inactive
PNMA1 (PNMA family member 1),0.72,migration z between -2 and 2; enough cells,1.07,5299,inactive
PGAP2 (post-GPI attachment to proteins 2),1.02,migration z between -2 and 2; enough cells,1.15,6420,inactive
RHOD (ras homolog family member D),0.47,migration z between -2 and 2; enough cells,0.9,4210,inactive
"GRPEL1 (GrpE like 1, mitochondrial)",-0.42,migration z between -2 and 2; enough cells,0.78,5670,inactive
